± gives the standard deviation of the averaged measurements. The list shows a part of the results.
Compound: Nc1nc2c(ncn2[C@@H]2O[C@H](COP(=O)(O)OP(=O)(O)OP(=O)(O)O)[C@@H](O)[C@H]2O)c(=O)[nH]1 [guanosine triphosphate]
Experiment: NP40-soluble protein abundance relative to vehicle (solubility fold change) (ratio); higher = more soluble protein in presence of GTP
Procedure, shortened: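 Jurkat crude lysate (Dounce-homogenised) was treated with eight concentrations from 0.1 to 10 mM for 10 min at room temperature, then 3 min at 37 °C. It was solubilised with 0.8% NP40 and benzonase (60 min, 4 °C) and ultracentrifuged, and the supernatant was TMT-labelled for LC-MS/MS. Intensities were vsn-normalised, and the value is the fold change against the NP40-processed vehicle per replicate, from three independent experiments.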

Protein sequences, listed by entry. Tags and fused reporters are not part of them. Lines headed by an entry give the natural chain unless they say otherwise; changes in a name come on top.
UniProt P20700: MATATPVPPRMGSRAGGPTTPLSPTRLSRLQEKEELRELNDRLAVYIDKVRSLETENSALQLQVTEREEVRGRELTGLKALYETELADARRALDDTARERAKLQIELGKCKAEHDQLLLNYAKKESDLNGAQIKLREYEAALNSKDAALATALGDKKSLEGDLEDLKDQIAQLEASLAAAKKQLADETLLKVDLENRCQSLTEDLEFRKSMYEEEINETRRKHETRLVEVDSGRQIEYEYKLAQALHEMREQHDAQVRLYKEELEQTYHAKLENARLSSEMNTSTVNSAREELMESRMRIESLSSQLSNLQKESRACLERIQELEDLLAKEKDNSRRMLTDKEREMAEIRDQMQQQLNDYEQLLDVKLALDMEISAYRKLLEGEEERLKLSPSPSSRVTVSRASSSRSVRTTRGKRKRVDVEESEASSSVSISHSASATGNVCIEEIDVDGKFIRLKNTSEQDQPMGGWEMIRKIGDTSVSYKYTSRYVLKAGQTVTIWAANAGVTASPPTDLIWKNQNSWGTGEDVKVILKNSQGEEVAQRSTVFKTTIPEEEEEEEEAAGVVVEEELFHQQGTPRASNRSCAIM
UniProt P15531, whole entry, looked up: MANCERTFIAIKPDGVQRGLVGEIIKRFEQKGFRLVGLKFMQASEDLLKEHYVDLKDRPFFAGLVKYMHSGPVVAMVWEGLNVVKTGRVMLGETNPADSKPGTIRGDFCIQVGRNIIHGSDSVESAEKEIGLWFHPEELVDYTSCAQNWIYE
UniProt P22392, whole entry, looked up: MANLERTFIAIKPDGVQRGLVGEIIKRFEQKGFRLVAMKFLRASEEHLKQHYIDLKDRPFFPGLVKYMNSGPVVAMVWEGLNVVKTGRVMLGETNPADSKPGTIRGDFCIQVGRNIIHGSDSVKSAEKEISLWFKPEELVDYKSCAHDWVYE
UniProt P17152: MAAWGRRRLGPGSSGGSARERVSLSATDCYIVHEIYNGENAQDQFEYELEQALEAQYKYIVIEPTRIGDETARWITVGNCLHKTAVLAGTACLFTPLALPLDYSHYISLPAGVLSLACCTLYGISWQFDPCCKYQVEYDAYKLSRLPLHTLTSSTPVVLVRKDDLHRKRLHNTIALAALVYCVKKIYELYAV
UniProt P24723, whole entry, looked up: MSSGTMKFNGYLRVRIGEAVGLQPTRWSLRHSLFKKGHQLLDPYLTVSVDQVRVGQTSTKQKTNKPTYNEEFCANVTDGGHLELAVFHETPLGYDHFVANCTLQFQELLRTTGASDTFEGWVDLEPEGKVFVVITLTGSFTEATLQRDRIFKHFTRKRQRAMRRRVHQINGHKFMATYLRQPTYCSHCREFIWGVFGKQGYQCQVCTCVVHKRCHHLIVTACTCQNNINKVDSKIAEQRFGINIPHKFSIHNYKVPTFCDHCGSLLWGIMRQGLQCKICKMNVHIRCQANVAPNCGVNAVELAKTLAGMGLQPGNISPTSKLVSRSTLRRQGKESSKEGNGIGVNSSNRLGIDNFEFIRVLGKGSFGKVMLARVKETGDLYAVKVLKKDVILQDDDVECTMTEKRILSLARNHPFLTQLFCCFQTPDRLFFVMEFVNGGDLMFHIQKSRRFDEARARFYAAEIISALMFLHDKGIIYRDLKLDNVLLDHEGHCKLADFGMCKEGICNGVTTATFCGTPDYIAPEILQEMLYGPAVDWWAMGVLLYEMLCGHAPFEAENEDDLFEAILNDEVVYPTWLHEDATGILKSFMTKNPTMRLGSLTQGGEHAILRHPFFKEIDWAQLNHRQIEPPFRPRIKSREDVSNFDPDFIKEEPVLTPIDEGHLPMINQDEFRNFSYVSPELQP
UniProt P23634: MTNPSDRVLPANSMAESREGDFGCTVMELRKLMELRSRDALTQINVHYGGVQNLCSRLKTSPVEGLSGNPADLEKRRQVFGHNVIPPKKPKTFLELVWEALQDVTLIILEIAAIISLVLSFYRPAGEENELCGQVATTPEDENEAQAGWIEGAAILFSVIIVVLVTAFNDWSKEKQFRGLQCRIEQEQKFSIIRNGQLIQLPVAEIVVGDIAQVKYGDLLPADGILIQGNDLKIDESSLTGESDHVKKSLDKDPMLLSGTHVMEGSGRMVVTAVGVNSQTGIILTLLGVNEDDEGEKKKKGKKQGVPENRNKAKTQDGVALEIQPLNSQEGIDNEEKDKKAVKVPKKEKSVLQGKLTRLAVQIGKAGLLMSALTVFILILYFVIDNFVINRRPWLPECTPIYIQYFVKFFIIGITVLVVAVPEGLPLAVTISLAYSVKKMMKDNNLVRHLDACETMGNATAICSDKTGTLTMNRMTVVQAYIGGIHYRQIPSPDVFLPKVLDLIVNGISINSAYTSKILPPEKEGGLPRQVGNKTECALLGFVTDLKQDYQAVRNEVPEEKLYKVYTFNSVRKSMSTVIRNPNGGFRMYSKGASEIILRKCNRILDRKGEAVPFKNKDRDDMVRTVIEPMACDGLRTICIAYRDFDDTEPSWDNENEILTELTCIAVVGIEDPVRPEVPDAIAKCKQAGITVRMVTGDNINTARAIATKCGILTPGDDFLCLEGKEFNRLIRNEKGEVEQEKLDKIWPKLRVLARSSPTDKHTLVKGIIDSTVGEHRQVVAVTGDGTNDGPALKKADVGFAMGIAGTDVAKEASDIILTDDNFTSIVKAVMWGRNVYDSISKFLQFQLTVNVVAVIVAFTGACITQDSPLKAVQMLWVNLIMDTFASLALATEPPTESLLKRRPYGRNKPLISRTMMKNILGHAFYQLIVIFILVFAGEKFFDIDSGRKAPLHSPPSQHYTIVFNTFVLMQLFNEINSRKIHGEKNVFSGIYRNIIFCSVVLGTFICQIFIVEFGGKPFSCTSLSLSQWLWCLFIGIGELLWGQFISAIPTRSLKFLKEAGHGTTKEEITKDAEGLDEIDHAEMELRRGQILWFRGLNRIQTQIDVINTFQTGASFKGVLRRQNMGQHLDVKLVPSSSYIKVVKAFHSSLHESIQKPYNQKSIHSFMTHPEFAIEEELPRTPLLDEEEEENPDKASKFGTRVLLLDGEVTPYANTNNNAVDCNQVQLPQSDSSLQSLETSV
UniProt P14151: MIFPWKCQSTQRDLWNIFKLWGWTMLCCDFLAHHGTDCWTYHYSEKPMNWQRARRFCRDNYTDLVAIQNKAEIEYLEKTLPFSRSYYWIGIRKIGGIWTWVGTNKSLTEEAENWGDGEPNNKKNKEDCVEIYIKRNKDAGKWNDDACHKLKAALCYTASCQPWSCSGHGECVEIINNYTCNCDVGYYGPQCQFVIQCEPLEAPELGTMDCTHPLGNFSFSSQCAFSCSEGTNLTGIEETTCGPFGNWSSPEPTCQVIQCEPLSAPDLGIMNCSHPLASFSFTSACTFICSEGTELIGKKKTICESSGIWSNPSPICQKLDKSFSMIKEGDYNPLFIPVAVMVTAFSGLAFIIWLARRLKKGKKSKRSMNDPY
UniProt P11387: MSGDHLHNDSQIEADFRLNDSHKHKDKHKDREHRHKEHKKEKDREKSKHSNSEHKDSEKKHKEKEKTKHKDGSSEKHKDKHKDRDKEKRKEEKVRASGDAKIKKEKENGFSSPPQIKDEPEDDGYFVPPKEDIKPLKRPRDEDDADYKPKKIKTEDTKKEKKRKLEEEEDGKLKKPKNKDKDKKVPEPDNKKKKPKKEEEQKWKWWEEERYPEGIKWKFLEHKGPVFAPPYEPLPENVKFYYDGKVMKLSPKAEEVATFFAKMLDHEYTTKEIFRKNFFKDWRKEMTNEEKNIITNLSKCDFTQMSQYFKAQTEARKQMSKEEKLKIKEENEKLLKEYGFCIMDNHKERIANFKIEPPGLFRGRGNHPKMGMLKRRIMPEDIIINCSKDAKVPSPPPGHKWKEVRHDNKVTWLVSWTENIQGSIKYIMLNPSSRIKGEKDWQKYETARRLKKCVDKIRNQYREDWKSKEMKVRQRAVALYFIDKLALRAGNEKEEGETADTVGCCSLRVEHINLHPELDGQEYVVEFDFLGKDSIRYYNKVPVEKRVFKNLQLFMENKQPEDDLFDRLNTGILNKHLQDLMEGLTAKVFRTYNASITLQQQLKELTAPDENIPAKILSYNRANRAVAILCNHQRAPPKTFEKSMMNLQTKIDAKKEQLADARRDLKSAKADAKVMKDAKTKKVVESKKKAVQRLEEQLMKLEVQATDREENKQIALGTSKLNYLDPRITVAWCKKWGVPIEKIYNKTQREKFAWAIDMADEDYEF
UniProt P12270, whole entry: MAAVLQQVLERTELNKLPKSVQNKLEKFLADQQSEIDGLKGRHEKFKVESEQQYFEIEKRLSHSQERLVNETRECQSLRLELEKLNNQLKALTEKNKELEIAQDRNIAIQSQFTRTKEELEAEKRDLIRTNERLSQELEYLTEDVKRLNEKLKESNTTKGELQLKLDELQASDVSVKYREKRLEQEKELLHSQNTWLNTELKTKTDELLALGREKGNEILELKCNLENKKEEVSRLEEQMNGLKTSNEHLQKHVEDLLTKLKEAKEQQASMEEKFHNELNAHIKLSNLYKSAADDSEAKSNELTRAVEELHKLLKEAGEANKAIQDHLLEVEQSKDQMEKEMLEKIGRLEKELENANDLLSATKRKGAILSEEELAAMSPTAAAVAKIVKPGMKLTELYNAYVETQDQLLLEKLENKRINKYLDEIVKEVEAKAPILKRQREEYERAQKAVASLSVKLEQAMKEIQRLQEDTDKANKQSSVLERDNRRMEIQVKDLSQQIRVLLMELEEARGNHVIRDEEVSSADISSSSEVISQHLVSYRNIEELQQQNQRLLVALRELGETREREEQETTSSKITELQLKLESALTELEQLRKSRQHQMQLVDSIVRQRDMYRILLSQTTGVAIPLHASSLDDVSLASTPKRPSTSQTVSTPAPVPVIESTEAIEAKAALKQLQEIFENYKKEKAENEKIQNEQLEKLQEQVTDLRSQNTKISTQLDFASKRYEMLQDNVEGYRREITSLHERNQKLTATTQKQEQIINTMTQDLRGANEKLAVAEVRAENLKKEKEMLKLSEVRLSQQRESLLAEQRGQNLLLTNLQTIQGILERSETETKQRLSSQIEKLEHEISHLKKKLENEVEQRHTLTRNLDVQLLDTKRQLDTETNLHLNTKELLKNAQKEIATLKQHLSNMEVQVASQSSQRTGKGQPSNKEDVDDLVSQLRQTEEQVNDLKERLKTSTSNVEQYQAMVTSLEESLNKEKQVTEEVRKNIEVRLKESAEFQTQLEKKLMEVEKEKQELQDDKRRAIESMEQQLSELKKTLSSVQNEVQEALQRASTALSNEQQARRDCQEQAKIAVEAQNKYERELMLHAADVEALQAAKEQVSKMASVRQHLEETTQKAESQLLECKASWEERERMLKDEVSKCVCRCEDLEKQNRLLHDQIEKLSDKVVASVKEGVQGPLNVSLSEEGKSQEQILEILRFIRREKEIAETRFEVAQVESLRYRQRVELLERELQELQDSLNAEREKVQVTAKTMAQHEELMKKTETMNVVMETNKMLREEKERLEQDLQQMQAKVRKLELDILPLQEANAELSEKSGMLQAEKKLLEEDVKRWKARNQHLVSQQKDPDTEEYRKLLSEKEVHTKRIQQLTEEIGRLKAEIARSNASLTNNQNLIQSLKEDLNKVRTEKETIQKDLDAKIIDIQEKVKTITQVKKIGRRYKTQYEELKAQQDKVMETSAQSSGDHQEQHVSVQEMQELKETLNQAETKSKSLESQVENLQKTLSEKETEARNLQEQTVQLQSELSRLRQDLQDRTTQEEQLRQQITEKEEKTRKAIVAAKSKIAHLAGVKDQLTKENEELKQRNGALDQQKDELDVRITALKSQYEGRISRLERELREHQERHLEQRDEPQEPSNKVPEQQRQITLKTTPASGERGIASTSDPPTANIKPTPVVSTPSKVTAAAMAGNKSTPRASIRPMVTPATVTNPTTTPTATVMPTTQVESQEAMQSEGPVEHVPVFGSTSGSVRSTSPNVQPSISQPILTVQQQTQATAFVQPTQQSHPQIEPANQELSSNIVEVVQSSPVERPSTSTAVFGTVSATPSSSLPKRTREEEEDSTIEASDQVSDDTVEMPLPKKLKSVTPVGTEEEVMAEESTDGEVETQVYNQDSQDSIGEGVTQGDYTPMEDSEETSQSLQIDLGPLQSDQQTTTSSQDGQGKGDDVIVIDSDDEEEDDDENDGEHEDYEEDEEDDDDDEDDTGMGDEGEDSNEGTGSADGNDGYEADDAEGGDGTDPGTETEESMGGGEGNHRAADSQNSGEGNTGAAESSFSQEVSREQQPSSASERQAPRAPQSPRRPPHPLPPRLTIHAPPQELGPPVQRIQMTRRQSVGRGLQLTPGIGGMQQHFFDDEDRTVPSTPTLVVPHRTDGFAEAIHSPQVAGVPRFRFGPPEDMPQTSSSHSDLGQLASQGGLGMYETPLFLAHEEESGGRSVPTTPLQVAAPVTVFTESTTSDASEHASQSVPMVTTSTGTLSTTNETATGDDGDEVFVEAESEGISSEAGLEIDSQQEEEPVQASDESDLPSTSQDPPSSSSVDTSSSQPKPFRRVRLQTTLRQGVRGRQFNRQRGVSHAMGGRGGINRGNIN

Target	NP40-soluble protein abundance (concentration: 0.1mM)	NP40-soluble protein abundance (concentration: 0.5mM)	NP40-soluble protein abundance (concentration: 1mM)	NP40-soluble protein abundance (concentration: 2mM)	NP40-soluble protein abundance (concentration: 4mM)	NP40-soluble protein abundance (concentration: 6mM)	NP40-soluble protein abundance (concentration: 8mM)	NP40-soluble protein abundance (concentration: 10mM)
PSMB1 (UniProt P20618)	1.03 ± 0.064	1.07 ± 0.12	1.09 ± 0.13	1.11 ± 0.17	1.11 ± 0.15	1.15 ± 0.2	1.13 ± 0.21	1.1 ± 0.22
UniProt P09564	1.03 ± 0.2	0.908 ± 0.048	1.09 ± 0.19	0.942 ± 0.15	1.02 ± 0.13	0.977 ± 0.15	1 ± 0.17	0.932 ± 0.14
LMNB1 (UniProt P20700)	0.906 ± 0.079	0.954 ± 0.075	0.935 ± 0.069	0.871 ± 0.086	0.827 ± 0.059	0.845 ± 0.069	0.849 ± 0.032	0.836 ± 0.054
OSBP (UniProt P22059)	0.982 ± 0.02	1 ± 0.026	0.94 ± 0.033	0.932 ± 0.018	0.906 ± 0.037	0.935 ± 0.034	0.932 ± 0.024	0.896 ± 0.043
IMPDH2 (UniProt P12268)	1 ± 0.031	1.14 ± 0.13	1.15 ± 0.2	1.22 ± 0.27	1.24 ± 0.28	1.2 ± 0.3	1.14 ± 0.26	1.1 ± 0.25
PRKAR1A (UniProt P10644)	0.921 ± 0.039	0.968 ± 0.031	0.944 ± 0.052	0.929 ± 0.062	0.953 ± 0.071	0.935 ± 0.079	0.975 ± 0.098	0.934 ± 0.088
UniProt P26358 and related entries	1 ± 0.024	1.03 ± 0.02	0.97 ± 0.034	0.967 ± 0.031	0.961 ± 0.027	0.962 ± 0.026	0.974 ± 0.03	0.955 ± 0.033
P15531-2|P22392-2|Q32Q12 (UniProt Q32Q12+P22392+P15531)	0.983 ± 0.029	0.946 ± 0.049	0.903 ± 0.045	0.909 ± 0.068	0.9 ± 0.017	0.878 ± 0.04	0.822 ± 0.06	0.839 ± 0.025
UniProt P09693 and related entries	0.874 ± 0.059	0.882 ± 0.057	0.913 ± 0.058	0.888 ± 0.1	0.869 ± 0.076	0.905 ± 0.099	0.859 ± 0.092	0.9 ± 0.071
UniProt P22314 and related entries	0.963 ± 0.021	0.996 ± 0.022	0.913 ± 0.024	0.9054 ± 0.0072	0.893 ± 0.013	0.891 ± 0.015	0.862 ± 0.035	0.863 ± 0.035
UniProt P19174 and related entries	1.05 ± 0.04	1.06 ± 0.06	0.952 ± 0.021	0.975 ± 0.066	0.967 ± 0.047	0.944 ± 0.051	0.9149 ± 0.0042	0.882 ± 0.039
TMEM11 (UniProt P17152)	1.01 ± 0.011	1.02 ± 0.035	0.828 ± 0.055	0.873 ± 0.017	0.856 ± 0.018	0.854 ± 0.016	0.807 ± 0.1	0.795 ± 0.2
PRKCH (UniProt P24723)	1.05 ± 0.011	1.02 ± 0.037	0.932 ± 0.026	0.962 ± 0.032	0.947 ± 0.037	0.914 ± 0.024	0.906 ± 0.066	0.878 ± 0.078
HSP90AB1 (UniProt P08238)	0.939 ± 0.065	0.968 ± 0.071	0.879 ± 0.086	0.887 ± 0.064	0.898 ± 0.068	0.858 ± 0.076	0.827 ± 0.092	0.846 ± 0.05
COX4I1 (UniProt P13073)	0.922 ± 0.0099	0.893 ± 0.043	0.961 ± 0.02	0.957 ± 0.041	0.946 ± 0.03	0.947 ± 0.038	0.898 ± 0.058	0.922 ± 0.029
UniProt P23634 and related entries	0.982 ± 0.049	1.01 ± 0.041	0.912 ± 0.025	0.941 ± 0.026	0.912 ± 0.064	0.9293 ± 0.0091	0.875 ± 0.066	0.897 ± 0.061
UniProt P21964 and related entries	1 ± 0.051	0.978 ± 0.06	0.951 ± 0.066	0.933 ± 0.071	0.948 ± 0.072	0.895 ± 0.082	0.911 ± 0.13	0.865 ± 0.092
UniProt P22681 and related entries	1.012 ± 0.0049	1.01 ± 0.039	0.973 ± 0.027	0.971 ± 0.014	0.94 ± 0.019	0.935 ± 0.01	0.942 ± 0.032	0.934 ± 0.02
UniProt P14151 and related entries	0.844 ± 0.078	0.865 ± 0.1	0.923 ± 0.049	0.872 ± 0.12	0.848 ± 0.1	0.887 ± 0.1	0.87 ± 0.1	0.903 ± 0.086
UniProt P17980 and related entries	0.951 ± 0.015	0.987 ± 0.035	0.98 ± 0.056	0.996 ± 0.058	1.02 ± 0.076	1.03 ± 0.1	1.03 ± 0.1	0.997 ± 0.11
POLR2C (UniProt P19387)	1.05 ± 0.023	1.08 ± 0.044	1.09 ± 0.052	1.13 ± 0.093	1.1 ± 0.086	1.11 ± 0.086	1.15 ± 0.14	1.1 ± 0.12
UniProt P13861 and related entries	0.993 ± 0.024	0.9712 ± 0.0063	0.98 ± 0.0095	0.966 ± 0.02	1.006 ± 0.004	0.981 ± 0.016	0.994 ± 0.017	0.98 ± 0.04
UniProt P23229 and related entries	1.01 ± 0.02	0.992 ± 0.11	0.978 ± 0.06	0.999 ± 0.058	0.975 ± 0.04	0.963 ± 0.085	1.02 ± 0.053	0.969 ± 0.058
TOP1 (UniProt P11387)	0.97 ± 0.049	0.996 ± 0.054	0.972 ± 0.065	1.02 ± 0.07	1.13 ± 0.077	1.25 ± 0.081	1.36 ± 0.1	1.42 ± 0.099
RPL7 (UniProt P18124)	0.956 ± 0.11	1.06 ± 0.16	1.07 ± 0.21	1.04 ± 0.29	0.887 ± 0.32	0.87 ± 0.3	0.546 ± 0.21	0.928 ± 0.35
AKR1B1 (UniProt P15121)	0.984 ± 0.019	1 ± 0.026	0.89 ± 0.037	0.87 ± 0.044	0.846 ± 0.058	0.855 ± 0.042	0.814 ± 0.083	0.769 ± 0.1
TPR (UniProt P12270)	0.951 ± 0.07	0.976 ± 0.077	0.987 ± 0.072	0.95 ± 0.093	0.963 ± 0.072	0.98 ± 0.073	1.02 ± 0.061	1.04 ± 0.089
SNRPA (UniProt P09012)	0.9 ± 0.024	0.893 ± 0.052	0.974 ± 0.017	0.926 ± 0.068	0.912 ± 0.052	0.924 ± 0.05	0.915 ± 0.039	0.901 ± 0.033

Given comma-delimited: part of the list above
Target,NP40-soluble protein abundance (concentration: 0.1mM),NP40-soluble protein abundance (concentration: 0.5mM),NP40-soluble protein abundance (concentration: 1mM),NP40-soluble protein abundance (concentration: 2mM),NP40-soluble protein abundance (concentration: 4mM),NP40-soluble protein abundance (concentration: 6mM),NP40-soluble protein abundance (concentration: 8mM),NP40-soluble protein abundance (concentration: 10mM)
UniProt P14151 and related entries,0.844 ± 0.078,0.865 ± 0.1,0.923 ± 0.049,0.872 ± 0.12,0.848 ± 0.1,0.887 ± 0.1,0.87 ± 0.1,0.903 ± 0.086
UniProt P17980 and related entries,0.951 ± 0.015,0.987 ± 0.035,0.98 ± 0.056,0.996 ± 0.058,1.02 ± 0.076,1.03 ± 0.1,1.03 ± 0.1,0.997 ± 0.11
POLR2C (UniProt P19387),1.05 ± 0.023,1.08 ± 0.044,1.09 ± 0.052,1.13 ± 0.093,1.1 ± 0.086,1.11 ± 0.086,1.15 ± 0.14,1.1 ± 0.12
UniProt P13861 and related entries,0.993 ± 0.024,0.9712 ± 0.0063,0.98 ± 0.0095,0.966 ± 0.02,1.006 ± 0.004,0.981 ± 0.016,0.994 ± 0.017,0.98 ± 0.04
UniProt P23229 and related entries,1.01 ± 0.02,0.992 ± 0.11,0.978 ± 0.06,0.999 ± 0.058,0.975 ± 0.04,0.963 ± 0.085,1.02 ± 0.053,0.969 ± 0.058
TOP1 (UniProt P11387),0.97 ± 0.049,0.996 ± 0.054,0.972 ± 0.065,1.02 ± 0.07,1.13 ± 0.077,1.25 ± 0.081,1.36 ± 0.1,1.42 ± 0.099
RPL7 (UniProt P18124),0.956 ± 0.11,1.06 ± 0.16,1.07 ± 0.21,1.04 ± 0.29,0.887 ± 0.32,0.87 ± 0.3,0.546 ± 0.21,0.928 ± 0.35

Source: the supplement of paper PMC6411743
